The experiment deals with UQCRQ-FLAG, transfected in HEK293T (UniProt O14949). The experiment in a line: co-IP; mitochondria of HEK293T transiently expressing UQCRQ-FLAG and BR-HA; FLAG immunoprecipitation as for the mouse mitochondria; immunoblot for BR-HA. (A western blot detects proteins with antibodies after separation by electrophoresis.)

Chains of the proteins cited; added tags and fusions are not shown.
UniProt O14949: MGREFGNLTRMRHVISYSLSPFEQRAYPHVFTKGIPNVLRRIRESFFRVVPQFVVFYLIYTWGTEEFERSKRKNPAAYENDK

The values that follow come from article PMC7066179.

No constants are given. Whether binding was seen depends on the method and setting. In cells and extracts the contact can be indirect. Some binding calls cover weakened binding; strength is not graded here.

Consider “BR-HA, transfected in HEK293T (from UniProt Q69YU5 1-71)”, for which the binding result is “binds”.
